Literature values as cited in US12311054B2, “Compositions and methods of using propylene sulfide-based polymers for treatment of Chagas disease” (priority 2019, dated 2025).
Some results were stated once for a whole list of compounds, not compound by compound.

System: T. cruzi-infected patients
Details: cited from earlier work

For O=C(Cn1ccnc1[N+](=O)[O-])NCc1ccccc1 [BNZ, N-benzyl-2-(2-nitro-1H-imidazol-1-yl)acetamide], the “efficacy during acute T. cruzi infections” value (acute infection, patients) is given as “up to 80%” and the “efficacy rate in chronically-infected patients” value (chronic infection) is given as 5-20%.
